These are yes or no findings as the source states them, for the method shown. Binding calls can cover weak binding; strength is not graded here.
Molecular target: HLA-A*0201 (human)
Experiment: UV-ligand exchange; anti-b2m ELISA

B1: PCNXL3-001 (peptide)
peptide: GVLENIFGV
binding: binds

B2: TANC2-001 (peptide)
peptide: ALMDKEGLTAL
binding: binds

B3: HUWE1-001 (peptide)
peptide: RLLGPSAAADILQL
binding: binds

Reference: patent publication US20170319675A1
